# The whole screen tested about 330,000 compounds, of which about 7,700 (2.3%) were called active. Inconclusive results, whose numbers are uncertain, are shown with a selection of clear calls. Calls come from the whole dose curve; as a rule, active = well fitted inhibition curve with a large enough effect; inconclusive = small, poorly fitted or top-dose-only effect, or effect the other way; inactive = flat fitted curve, though single readings scatter. A potency beside an inconclusive call is a rough fit, not a confirmed value.
# Experiment: qHTS screen for small molecules that inhibit ELG1-dependent DNA repair in human embryonic kidney (HEK293T) cells expressing luciferase-tagged ELG1; note: nearly all actives have a fitted effect of over 55% in size
# Conditions: HEK293T ELG1-luciferase reporter, luminescence, 16 h, DNA damage induced by 5-fluorouridine; series mostly up to 46.1 µM
# In short: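 Quantitative HTS, concentration-response format. 2,000 cells/well co-treated with 5-fluorouridine and compound, 16 hr in 5% CO2 at 37 °C; ONE-Glo luminescence read after 30 min.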
# Potency is the fitted concentration of half-maximal effect.
row,Structure (SMILES),Potency
1,O=C(O)c1nn(CC(=O)N2CCN(S(=O)(=O)c3ccc(Cl)cc3)CC2)c(=O)c2ccccc12,"inconclusive: 0.58 µM [inhibitor, single point]"
2,Cc1cc(/C=N/NC(=O)c2ccsc2)c(C)n1-c1cnccn1,"inconclusive: 20.6 µM [activator, partial curve]"
3,CC(=O)c1c(C)[nH]c(C(=O)OCc2ccc(Br)cc2)c1C,active: 18.3 µM
4,CNC(=S)N1CCC(c2nc3ccccc3s2)CC1,"inconclusive: 32.6 µM [activator, single point]"
5,O=C1N=C(N2CCOCC2)S/C1=C\c1ccc(-c2ccccc2Cl)o1,"inconclusive: 2.59 µM [inhibitor, full curve, poor fit]"
6,O=C(COc1ccc([N+](=O)[O-])cc1)N/N=C/c1cc([N+](=O)[O-])ccc1N1CCOCC1,active: 18.4 µM
7,O=C(c1ccc(Cl)cc1)N1CCN(S(=O)(=O)/C=C/c2ccccc2)CC1,"inconclusive: 32.6 µM [inhibitor, single point]"
8,Cc1ccc(CNC(=O)CCCOc2cc(=O)n(C)c3ccccc23)o1,"inconclusive: 16.4 µM [activator, partial curve]"
9,COc1ccc(NC(=O)N(C)C[C@H]2Oc3c(NS(=O)(=O)c4cccs4)cccc3C(=O)N([C@H](C)CO)C[C@@H]2C)cc1,"inconclusive: 13 µM [activator, partial curve]"
10,CCOc1ccc(NC(=O)COc2cccc3c2CCN(Cc2cccnc2)C3=O)cc1,"inconclusive: 29.1 µM [inhibitor, single point]"
11,CC(C)(C)c1ccc(C(=O)NC(=O)COC(=O)c2ccc(Br)o2)cc1,"inconclusive: 29.1 µM [activator, single point]"
12,O=C(N/N=C\c1cccnc1)c1ccccc1O,"inconclusive: 20.6 µM [activator, partial curve]"
13,CCOc1cc(/C=N/Nc2ncc(C)c(=O)[nH]2)ccc1O,"inconclusive: 18.3 µM [activator, single point]"
14,CC(C)(C)OC(=O)C[C@@H]1C/C=C\C[C@H](CC(=O)N(CCO)Cc2ccccc2)C(=O)N[C@@H](Cc2ccccc2)COC1=O,"inconclusive: 23.1 µM [inhibitor, single point]"
15,O=C(CSc1nnnn1Cc1ccccc1)c1ccccc1F,"inconclusive: 20.6 µM [activator, single point]"
16,CC(=O)c1c(C)[nH]c(C(=O)Nc2nc(C)cs2)c1C,"inconclusive: 0.366 µM [activator, full curve]"
17,CC(Sc1ccccc1)C(=O)N1CCN(S(=O)(=O)c2ccccc2F)CC1 (stereo not drawn),inactive
18,Cc1ccccc1-n1nnnc1SCC(=O)c1c(N)n(C2CC2)c(=O)[nH]c1=O,active: 20.6 µM
19,CCc1nnc(NC(=O)c2ccc(Cl)nc2)s1,"inconclusive: 11.6 µM [activator, partial curve]"
20,S=c1[nH]nc(-c2ccccc2)n1/N=C/c1cccc(Cl)c1,inactive
21,COC(=O)/C(=C1\Oc2ccc(C(C)(C)C)cc2S1)C(F)(F)F,"inconclusive: 13 µM [activator, partial curve]"
22,O=C(CN1CCCCC1)NCC1(c2ccccc2)CCCC1,"inconclusive: 25.9 µM [activator, partial curve, poor fit]"
23,O=C(Cc1cccs1)NCc1ccc2c(c1)OCO2,"inconclusive: 20.6 µM [activator, partial curve, poor fit]"

row,Structure (SMILES),Potency
1,Cc1ccc(Cn2c(CN(C)Cc3ccccc3)nc3c2c(=O)n(C)c(=O)n3C)cc1,"inconclusive: 29.1 µM [inhibitor, single point]"
2,CC(=O)NC(Nc1nc2c(s1)CCCC2)(C(F)(F)F)C(F)(F)F,inactive
3,CCNC(=S)Nc1cc(C)ccn1,"inconclusive: 23.1 µM [activator, partial curve]"
4,Cc1nn(Cc2c(F)c(F)c(F)c(F)c2F)c(C)c1NC(=O)c1ccc(COc2cc(Cl)ccc2Cl)cc1,"inconclusive: 29.1 µM [activator, single point]"
5,COc1cc(NC(=O)Cn2c(=O)n(CC3CCCO3)c(=O)c3cc(OC)c(OC)cc32)cc(OC)c1 (stereo not drawn),"inconclusive: 29.1 µM [inhibitor, single point]"
6,c1ccc(Cc2cc(-c3ccccc3)on2)cc1,"inconclusive: 20.6 µM [activator, partial curve]"
7,CCC1SC(C)C/C(=N/NC(N)=O)C1C (stereo not drawn),"inconclusive: 23.1 µM [activator, single point]"
8,COc1cccc(/C=C/C(=O)OCC(=O)NCCC2=CCCCC2)c1,inactive
9,COCc1cc(C)nc(SCC(=O)Nc2cc(C(F)(F)F)ccc2N2CCOCC2)c1C#N,"inconclusive: 25.9 µM [inhibitor, partial curve, poor fit]"
10,O=C(Nc1ccccc1Cl)c1ccc(COc2ccc3c(c2)CCC3)cc1,"inconclusive: 16.4 µM [activator, partial curve]"
11,CCN1CCCC1CN(Cc1cc2cc(C)cc(C)c2[nH]c1=O)C(=O)Nc1ccccc1OC (stereo not drawn),"inconclusive: 29.1 µM [inhibitor, single point]"
12,CC(C)NC(=O)N(C)C[C@H]1Oc2ccc(NS(=O)(=O)c3ccccc3)cc2C(=O)N([C@H](C)CO)C[C@@H]1C,inactive
13,Fc1ccc(Nc2nnc(C(F)(F)F)s2)cc1,"inconclusive: 6.51 µM [inhibitor, partial curve, poor fit]"
14,CCN(Cc1nc2ccccc2c(=O)[nH]1)Cc1nc2cc(OC)c(OC)cc2c(=O)[nH]1,"inconclusive: 13 µM [inhibitor, partial curve]"
15,CSc1ccccc1N=CC1=C(O)CC(C)(C)CC1=O,inactive
16,CS(=O)(=O)Nc1ccc(-c2cn3c(n2)SCC3)cc1,"inconclusive: 23.1 µM [activator, single point]"
17,CN1CCN(C(=O)c2ccc(-c3ccc(Br)cc3)o2)CC1,"inconclusive: 10.3 µM [activator, partial curve]"
18,Cc1nc2cc(NS(=O)(=O)c3ccc(Br)cc3)ccc2n1C,active: 20.6 µM
19,Cc1[nH]c2ccccc2c1/C=N/NC(=O)CCC(=O)NCc1ccccc1,inactive
20,COC(=O)c1nc(N)sc1-c1ccc(OC)cc1,"inconclusive: 18.4 µM [activator, partial curve]"
21,Cc1cccc(Cn2nnc3c2C(=O)c2ccccc2C3=O)c1,"inconclusive: 29.1 µM [inhibitor, single point]"
22,CC(=O)c1cc2c(=O)c3cc(C)ccc3oc2nc1C,"inconclusive: 10 µM [activator, partial curve]"
23,N#Cc1c(NC(=O)c2ccccc2)sc2c1CCC2,"inconclusive: 1.3 µM [activator, full curve]"

# Copied from above for reference:
row,Structure (SMILES),Potency
1,Cc1ccc(Cn2c(CN(C)Cc3ccccc3)nc3c2c(=O)n(C)c(=O)n3C)cc1,"inconclusive: 29.1 µM [inhibitor, single point]"
2,CC(=O)NC(Nc1nc2c(s1)CCCC2)(C(F)(F)F)C(F)(F)F,inactive
3,CCNC(=S)Nc1cc(C)ccn1,"inconclusive: 23.1 µM [activator, partial curve]"
4,Cc1nn(Cc2c(F)c(F)c(F)c(F)c2F)c(C)c1NC(=O)c1ccc(COc2cc(Cl)ccc2Cl)cc1,"inconclusive: 29.1 µM [activator, single point]"

# (list continues)

row,Structure (SMILES),Potency
1,Cc1c(C(=O)NC2CCCc3ccccc32)oc2ccc(S(=O)(=O)N3CCCC3)cc12 (stereo not drawn),inactive
2,COc1ccc(-c2cc(C(=O)N3CCCCCC3)no2)cc1,"inconclusive: 5.8 µM [activator, partial curve]"
3,Cc1ccc(NC(=O)Nc2ccc3c(c2)CCC3)cc1C,"inconclusive: 18.3 µM [activator, partial curve, poor fit]"
4,O=C(Nc1cc([N+](=O)[O-])ccc1O)c1ccc2c(c1)C(=O)N(Cc1ccco1)C2=O,"inconclusive: 4.61 µM [activator, single point]"
5,O=C(CC1(O)C(=O)N(CCc2ccccc2)c2ccccc21)c1ccccn1 (stereo not drawn),inactive
6,Cc1nc(C)c(-c2ccn(C(=O)NC(C)C)n2)s1,inactive
7,COc1ccc(-c2cn[nH]c2-c2ccc(OCc3ccccc3F)cc2O)cc1OC,"inconclusive: 16.4 µM [inhibitor, single point]"
8,O=C(COC(=O)c1cnc(Cl)c(Cl)c1)NC1CC1,"inconclusive: 18.3 µM [activator, partial curve, poor fit]"
9,C/C(CC(=O)Nc1ccc(OCc2ccccc2)cc1)=N\NC(=O)C(=O)Nc1cccc(C)c1,"inconclusive: 11.6 µM [activator, partial curve]"
10,Cc1ccc2nc(CSc3nnc(Nc4ccccc4F)s3)cc(=O)n2c1,"inconclusive: 25.9 µM [inhibitor, single point]"
11,O=C(NCc1ccccc1Cl)C1CCC(CNc2nc(=S)[nH]c3ccccc23)CC1 (stereo not drawn),"inconclusive: 29.1 µM [activator, partial curve, poor fit]"
12,COc1ccc(C(=O)c2cnc(C(C)C)n2C)cc1,"inconclusive: 18.4 µM [activator, single point]"
13,CC(=O)O[C@H]1C2OC(=O)C(C)=C2[C@@H]2OC(=O)[C@]3(CCC4OC41C)OC23 (stereo partly drawn),inactive
14,COc1ccc2cc(C(=O)N3CCN(C)CC3)[nH]c2c1,"inconclusive: 18.3 µM [activator, partial curve]"
15,CC(=O)Nc1ccc(C=C(C(C)=O)C(C)=O)cc1,"inconclusive: 29.1 µM [activator, single point]"
16,C[C@@H](C(=O)NCc1ccco1)N1C(=O)N2CCc3c([nH]c4ccccc34)[C@@]2(C)C1=O,inactive
17,NCC(O)CN1CCN(Cc2ccccc2)CC1 (stereo not drawn),inactive
18,COc1ccc(NS(=O)(=O)c2ccc(N3CCOCC3)c(NC(=O)c3ccccc3Br)c2)cc1,inactive
19,C/C(=N\NC(=O)c1ccoc1C)c1ccccc1O,"inconclusive: 8.2 µM [activator, partial curve]"
20,COc1ccccc1Cc1nnc(NC(=O)C2CCN(C(=O)c3ccco3)CC2)s1,inactive
21,CCCCc1nc(NCC2CCCO2)c(C#N)c2c1COC(C)(C)C2 (stereo not drawn),active: 7.31 µM
22,O=C(Nc1ccc2c(c1)OCO2)c1cnc(Cl)c(Cl)c1,"inconclusive: 10.3 µM [activator, partial curve]"

# Source: PubChem BioAssay AID504467 (National Center for Advancing Translational Sciences (NCATS), 2011)
